# Assay results

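Luminescence from an EWS-FLI1 target-promoter (NR0B1) reporter, set against a CMV-promoter reporter, two days after silencing single genes in TC32 Ewing sarcoma cells. Each siRNA was applied at 20 nM. A z-score of the log NR0B1-over-CMV signal, less the median of siRNAs with the same seed; more negative means a stronger specific loss of the NR0B1 reporter.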

The strongest results of the screen are mostly left out here. Sequences are the guide (antisense) strand, without overhang.

siRNA,gene,seed-corrected z-score
UAUGGUCCAGAUGAUCUGG,PDCD2,-0.1537
AACGGUAUGGUUUCUAAGC,MANSC1,0.0575
AUCAUGUAAGUGUCCAUGC,OR4C11,1.147
UUUCGAUCUGGGUGAACUC,CHMP6,0.1686
UUUCCUUCGAGUCGUGUUG,TMEM184A,0.3072
UUAGUGUCCAGGCACCAAG,CDC23,2.175
AUUGUAGGAAAUCAUGUCC,DPT,-1.198
UUGUUCUAGACAGAGUUGC,CEP41,0.5975
UCAUGGAGUAUUUACAUGC,COA7,0.3635
UAUAAUCAAAUCGAUCAUG,CYP2C18,0.4098
UUAAUGAGGUCAUUGAUCU,RPLP1P3,-1.576
AGAGAAUUCGUACCGGUCC,IKZF4,-0.2985
UGACGAAGAACCAUUAGGC,CSDE1,1.787
AGAUUUUCAAGCUCUCUAC,ITGB3BP,-0.06818
UAAGGAGACAGAGGGUUCA,TIMM23B,-0.8304
UGCUUGUGAAUAUUGAUGG,RPL31P31,-1.732
AAUCUUCACGUAGCUGUCC,PAK6,-0.2583
UCCCAGACCAUAACUCUUG,GCM1,-0.2756
AUCCGCAAUAUACUCAUCC,RCN1,-0.6789
UCAUAGAUCUGGUGGUUGG,LBX1,-1.108
UUUAUUGUCGAAGACCUCU,CD9,0.3451
UAAUUCUCACGCUAUCAUG,AADACL4,0.5091
AUUUUUCGCAAAGCUAUUC,FABP5P1,0.4727
UACAAAUUGACCAGGCUGU,FTL,1.464
AUCGUUUUAGUUUCUGGAG,STAC,-0.8613
UGGAUUAUAGUCGCUAUCC,ZNF335,0.8391
UCAGUGUUCACAUCCACCU,SDF4,0.8448
UCAGCCGUUUGUCAUAUGC,C3orf20,-0.05557
UCAAAUAGCAGAGUUUGCC,CATIP,0.1772
UCCUUUCCUAGCUCCCAGC,CFAP65,-0.1482
UAUGUAACAUAAGCUAACC,E2F3,0.1291
UAGGGUGUAGGGUGUCAGU,PRIMA1,-0.5047
UUCUGAUUCCGAAAUCUCA,TSPAN31,0.3449
AUGCCUAUUAUGAUAUUGG,ADAM22,-1.411
AUUGCAGUAAGAAAGUCUG,TBCE,-1.122
UUCUCGAUGCCCUUUUUCC,MDH2,-0.03904
UGAAUCAGGAUGAUUAGUC,SKA2P1,0.4806
UACUGGUUCACCACAGCCG,INHBB,-0.27
UGAGCAUCCAUGGUUACAG,OR4F15,0.4975
AUGGGAAUCAAAAAGACUG,NAT8,-0.5801
UUCGAAAGUGGAAAGUUGC,ZNF280B,0.3248
UAGUCGCGUAGAGAGAAGG,ZBTB45,-0.8613
AUAUAUAGAAACUAACUGG,CAAP1,-0.4042
UCUGGAACAGGUCUCGUAC,UCK2,-0.05915
UAACUUGCCCACUCCAUGG,AGPS,-1.019
UUCUUCAUGACUUUAUAUC,USP30,0.6665
UAACUGUUCGGAGGUCAAC,STOML3,-1.04
UAAUAUACGUCUGAAAACG,COX18,0.142
UUCGAGACAGAAACUAGCU,LOXL3,0.137
AUAAAUCUGACGAAUGUCC,TEAD1,-0.01499
AUCCUGUCAAGGUUCGUCC,GATM,1.113
UUUUCUAUACUUUCAACUG,SFXN4,0.5491
UCACUUGAGCUUCAGACCG,R3HDM4,-0.2122
UCAGCUUUUGGUUGAGCCC,MED10,1.388
UCUCGUCCAAGAUACAGCA,LYRM5,-0.6758
UGAACAUCAUGUUUCUUUC,PLPP6,-0.2872
UAAGGUCGUACUUGACAAG,NINJ1,0.3567
UUGCCUGCGAGUAUCUCUC,STX10,-0.362
UUGGAGCACAGGGAAUGGG,CARD10,-1.296
UCCAUUGCGACAACAUUGG,SUPT3H,1.145
UUGCAUACUCCAUUAACUG,LINC01625,-0.9371
ACAUUGAAUAGAGUGAGGG,CEACAM5,0.9209
UAGGUACUCUUCAUAAGGC,LAMA1,-0.3539
AACCUUAUGAAAGUGGAAG,SELO,0.4104
UGAAAUUGCACAGAAAGCU,LY6E,0.5861
UGUGGUGAUUCGCUUCUGG,POLR2F,-0.4328
UAGGGAAACUGGGCCCAGA,B9D2,0.4374

The last 6 entries again:

| siRNA | gene | seed-corrected z-score |
|---|---|---|
| `ACAUUGAAUAGAGUGAGGG` | CEACAM5 | 0.9209 |
| `UAGGUACUCUUCAUAAGGC` | LAMA1 | -0.3539 |
| `AACCUUAUGAAAGUGGAAG` | SELO | 0.4104 |
| `UGAAAUUGCACAGAAAGCU` | LY6E | 0.5861 |
| `UGUGGUGAUUCGCUUCUGG` | POLR2F | -0.4328 |
| `UAGGGAAACUGGGCCCAGA` | B9D2 | 0.4374 |

Source: PubChem BioAssay AID1159506 (NCATS, 2015).